Laboratory results published in US20110124564A1, “NUCLEOLIN-BINDING PEPTIDES, NUCLEOLIN- BINDING LYTIC PEPTIDES, FUSION CONSTRUCTS AND METHODS OF MAKING AND USING SAME” (ESPERANCE PHARMACEUTICALS, INC., published 2011).
Entries after “also recorded” stand apart in the source; their conditions may differ. At least one peptide structure holds a part that was inferred or is arguable (an end, a ring closure or a residue). Residues, ends and D or L forms follow the SMILES beside them.

How the values were obtained:
[1] = tested on: human PC-3 prostate cancer; experiment: PC-3 prostate cancer xenograft in male nude mice; format: in vivo, mouse; settings: PC-3 xenograft, i.v. on Days 17, 21, 25 and 30; EP-302 0.02, 0.2 and 1 mg/kg, unconjugated peptide 1 mg/kg
[2] = tested on: human MDA-MB-435S breast cancer cells; experiment: MDA-MB-435S breast cancer xenograft in female nude mice; format: in vivo, mouse; settings: MDA-MB-435S xenograft, i.v.; EP-302 0.2 mg/kg, unconjugated peptide 1 mg/kg

SMILES | Tumor volume [1] | Tumor volume [2]
CC(C)C[C@@H](NC(=O)[C@@H](CCCNC(=N)N)NC(=O)[C@@H](C)NC(=O)[C@@H](CO)NC(=O)[C@@H](CCCNC(=N)N)NC(=O)[C@@H](CCCNC(=N)N)NC(=O)[C@@H](CCC(N)=O)NC(=O)[C@@H](CC(C)C)NC(=O)[C@@H](CCCNC(=N)N)NC(=O)[C@@H](C)NC(=O)[C@H](N)CCCNC(=N)N)C(=O)N[C@H](CO)C(=O)N[C@H](C)C(=O)N[C@H](CCCCN)C(=O)O | tumor volume arrest | reduction of tumor volume after the 3rd injection
CC(C)C[C@H](NC(=O)[C@H](CCCNC(=N)N)NC(=O)[C@H](C)NC(=O)[C@H](CO)NC(=O)[C@H](CCCNC(=N)N)NC(=O)[C@H](CCCNC(=N)N)NC(=O)[C@H](CCC(N)=O)NC(=O)[C@H](CC(C)C)NC(=O)[C@H](CCCNC(=N)N)NC(=O)[C@H](C)NC(=O)[C@H](CCCNC(=N)N)NC(=O)[C@H](CCCCN)NC(=O)[C@H](C)NC(=O)[C@H](Cc1ccccc1)NC(=O)[C@H](CCCCN)NC(=O)[C@H](CCCCN)NC(=O)[C@H](C)NC(=O)[C@H](Cc1ccccc1)NC(=O)[C@H](CCCCN)NC(=O)[C@H](C)NC(=O)[C@H](Cc1ccccc1)NC(=O)[C@H](CCCCN)NC(=O)[C@H](CCCCN)NC(=O)[C@H](C)NC(=O)[C@H](Cc1ccccc1)NC(=O)[C@H](CCCCN)NC(=O)[C@H](C)NC(=O)[C@H](Cc1ccccc1)NC(=O)[C@@H](N)CCCCN)C(=O)N[C@@H](CO)C(=O)N[C@@H](C)C(=O)N[C@@H](CCCCN)C(=O)O [EP-302] (H-KFAKFAKKFAKFAKKFAKRARLQRRSARLSAK-OH) | reduced tumor volume; also recorded: tumor volume reduction | reduced tumor volume; also recorded: tumor volume reduction
